## Library screening results

By UniProt entry, the sequences of proteins in these tests, tags left out.
UniProt E9BF75, entry or part of it: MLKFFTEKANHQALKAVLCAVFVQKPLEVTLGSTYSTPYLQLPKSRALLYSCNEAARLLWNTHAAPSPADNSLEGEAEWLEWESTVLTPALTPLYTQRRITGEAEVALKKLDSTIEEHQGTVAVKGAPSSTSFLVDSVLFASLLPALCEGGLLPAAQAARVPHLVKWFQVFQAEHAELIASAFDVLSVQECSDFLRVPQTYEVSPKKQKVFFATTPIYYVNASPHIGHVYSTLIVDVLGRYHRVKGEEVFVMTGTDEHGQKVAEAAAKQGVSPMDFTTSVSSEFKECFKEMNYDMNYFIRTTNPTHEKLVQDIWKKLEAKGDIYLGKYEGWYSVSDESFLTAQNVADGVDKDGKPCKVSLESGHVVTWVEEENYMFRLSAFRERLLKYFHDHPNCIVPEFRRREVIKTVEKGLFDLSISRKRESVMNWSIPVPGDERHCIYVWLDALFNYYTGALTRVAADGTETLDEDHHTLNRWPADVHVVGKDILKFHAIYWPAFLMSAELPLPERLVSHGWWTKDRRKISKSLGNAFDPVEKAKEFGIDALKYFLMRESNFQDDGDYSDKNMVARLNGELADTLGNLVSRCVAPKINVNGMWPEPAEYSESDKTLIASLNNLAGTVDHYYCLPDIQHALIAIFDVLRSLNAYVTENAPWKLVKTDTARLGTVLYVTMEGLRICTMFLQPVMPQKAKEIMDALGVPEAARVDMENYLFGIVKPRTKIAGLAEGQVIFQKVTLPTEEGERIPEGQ

From ChEMBL document CHEMBL3988442, “University of Dundee, Small-Polar-MMV Screening Library” (2021).

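Methionyl-tRNA synthetase (putative), Leishmania donovani (UniProt E9BF75). Primary screen of methionyl-tRNA synthetase; the read-out is not stated. The test concentration is not given. Values are per cent inhibition. About 68,000 compounds were tested under these conditions; 0.035% (about 24) showed 50% or more at least once.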

All values are in %.
The record does not define 0% and 100%; most values in the screen are far below 50% and negative numbers occur (in some assays of this library far below -100).
The compounds are a random part of those screened.

{"structure": "CCOc1ccc(S(=O)(=O)NCCc2ccc(N(C)C)cc2)cc1F", "Inhibition": 8.633}
{"structure": "NC(=O)CN1CCC(C(=O)NCC(O)c2cccc(F)c2)CC1", "stereo": "centres undefined", "Inhibition": 17.22}
{"structure": "Cc1cccc(C(=O)N2CCn3cnc(COCC4CC4)c3C2)n1", "Inhibition": 12.77}
{"structure": "O=C(NCC1CC1)[C@H]1C[C@H]2OCC[C@H]2N(Cc2ccsc2)C1", "Inhibition": 3.863}
{"structure": "COc1ccccc1CC1CCCN(C(=O)c2n[nH]c3c2CCC3)C1", "stereo": "centres undefined", "Inhibition": 18.36}
{"structure": "OCc1cnc(Nc2ccccc2)nc1", "Inhibition": 4.313}
{"structure": "CNc1ccc(C2CN(c3nc(C)cc(C)n3)CCO2)nc1", "stereo": "centres undefined", "Inhibition": 16.28}
{"structure": "COc1ccccc1OC1CN(C(=O)c2ccc(C(C)=O)s2)C1", "Inhibition": 10.36}
{"structure": "O=C(Cn1cccn1)Nc1ccc(N2CCOCC2)cc1", "Inhibition": 6.609}
{"structure": "N#Cc1c(SCCN2CCOCC2)sc2c(O)cc(O)nc12", "Inhibition": -2.432}
{"structure": "COC(C)(CNS(=O)(=O)c1cn(C)cn1)c1ccccc1F", "stereo": "centres undefined", "Inhibition": 14.98}
{"structure": "O=C1C(N2CCOCC2)CCCN1Cc1cccc(C(F)(F)F)c1", "stereo": "centres undefined", "Inhibition": 3.096}
{"structure": "CN(C)CC1CN(Cc2ccc(F)cc2)Cc2nccn2C1", "stereo": "centres undefined", "Inhibition": 10.67}
{"structure": "CCn1nc(C)c2ccn(CC(=O)NC3CC3)c(=O)c21", "Inhibition": 7.324}
{"structure": "O=C(NCCN1CCOCC1)c1cc(Cl)c2c(c1)OCCCO2", "Inhibition": 13.52}
{"structure": "NC(=O)NCC(=O)N1CCC(c2cc(-c3ccccc3Cl)n[nH]2)CC1", "Inhibition": 7.843}
{"structure": "Cc1nnc(N2CCCC3(CN(Cc4cnn(C)c4)CCO3)C2)o1", "stereo": "centres undefined", "Inhibition": 20.62}
{"structure": "O=C(NCC1CC1)C1=NOC2(CCN(S(=O)(=O)c3cccs3)C2)C1", "stereo": "centres undefined", "Inhibition": 15.02}
{"structure": "CNC(=O)c1cc(S(=O)(=O)C(C)C)cs1", "Inhibition": 7.744}
{"structure": "COc1ccc(CCC(=O)N2CCCCC2Cn2cccn2)cc1F", "stereo": "centres undefined", "Inhibition": 20.44}
{"structure": "O=C(c1ccncc1)N1CC[C@H]2[C@H]1CCN2S(=O)(=O)C1CC1", "Inhibition": 13.7}
{"structure": "Fc1ccccc1OCCc1cc(C2CCNC2)n[nH]1", "stereo": "centres undefined", "Inhibition": 10.29}
{"structure": "Cc1nc(C2CCN(S(=O)(=O)c3ccc4c(c3)CCO4)CC2)n[nH]1", "Inhibition": 17.04}
{"structure": "COc1ccc(N2CCN(C(=O)C(C)n3cc(Br)cn3)CC2)cc1", "stereo": "centres undefined", "Inhibition": -17.34}
{"structure": "COc1ncccc1CNC(=O)N(Cc1ccc(F)cc1F)C1CC1", "Inhibition": 14.53}
{"structure": "CC(C)(C(=O)NCC(=O)N1CCCC1)c1ccccc1F", "Inhibition": 20.1}
{"structure": "O=C([C@H]1CC[C@@H]2[C@@H](CCN2Cc2ccc(F)cc2)O1)N1CCCO1", "Inhibition": 14.07}
{"structure": "CCn1ccc2cc(NC(=O)CC3CCCO3)ccc21", "stereo": "centres undefined", "Inhibition": 12.1}
{"structure": "CCC(=O)N1CC[C@@H](c2ccc3ccccc3c2)[C@H](O)C1", "Inhibition": 18.54}
{"structure": "O=C(CCNC(=O)c1ccc(Cl)cc1)NCc1nc(C2CC2)no1", "Inhibition": 7.666}
{"structure": "COc1cccc(NC(=O)Cn2cc(-c3ccccc3)ncc2=O)c1", "Inhibition": 15.6}
{"structure": "O=C(CC1CCCC1)NCCn1nc2ccccn2c1=O", "Inhibition": 6.494}
{"structure": "CCOc1ccc(NC(=O)N(C)Cc2cnn(C)c2)c(C)c1", "Inhibition": 6.442}
{"structure": "CN1N=C(C(=O)N2CCCC(CCc3ccccc3)C2)CCC1=O", "stereo": "centres undefined", "Inhibition": 23.34}
{"structure": "O=C(NCCCO)c1nnsc1-c1ccc(Cl)cc1", "Inhibition": 15.58}
{"structure": "CCc1c(C)nn(CCNC(=O)c2cnn[nH]2)c1C", "Inhibition": 8.824}
{"structure": "COCCN(C)CC(=O)N1C[C@H]2CC[C@@H]1CN(C(=O)c1ccncc1)C2", "Inhibition": 14.63}
{"structure": "c1coc(-c2noc(CN3CCCCC3Cn3cncn3)n2)c1", "stereo": "centres undefined", "Inhibition": 5.352}
{"structure": "c1ccc(Cn2cc(CNCC3CNc4ccnn4C3)cn2)cc1", "stereo": "centres undefined", "Inhibition": 20.48}
{"structure": "CCOC(=O)CN1CC(c2nc(-c3ccsc3)no2)C1", "Inhibition": 10.56}
{"structure": "O=C1N(Cc2cccc(F)c2F)CCCC1(O)CNC1CCCC1", "stereo": "centres undefined", "Inhibition": 9.756}
{"structure": "O=C(NCc1cnn2cccnc12)c1cccc(CC2CCNCC2)c1", "Inhibition": 49.48}
{"structure": "Cc1nc(CN(C)C(=O)Nc2cnn(CC3CCCO3)c2)cs1", "stereo": "centres undefined", "Inhibition": 6.884}
{"structure": "CC(C)N1CCOCC2(CCN(c3cnccn3)CC2)C1", "Inhibition": 19.61}
{"structure": "CCN(Cc1cccc(C(=O)Nc2c(C)cnn2C)c1)[C@H]1COC[C@@H]1O", "Inhibition": 13.19}
{"structure": "CC(NC(=O)C1CCCC1)c1nc(-c2ccccc2)c[nH]1", "stereo": "centres undefined", "Inhibition": 9.399}
{"structure": "CCSCc1nc(O)c2nnn(C3CCN(Cc4ccoc4)CC3)c2n1", "Inhibition": 13.71}
{"structure": "CC(=O)N1CCCN(C(C(=O)O)c2cccc(C)c2C)CC1", "stereo": "centres undefined", "Inhibition": 11.04}
{"structure": "CCc1ncc(C(=O)N2CCCOC(Cn3cccn3)C2)cn1", "stereo": "centres undefined", "Inhibition": 17.01}
{"structure": "Cc1nnsc1C(=O)N1CCCC(c2nccn2Cc2cscn2)C1", "stereo": "centres undefined", "Inhibition": 2.007}

The last 5 entries again:

CC(NC(=O)C1CCCC1)c1nc(-c2ccccc2)c[nH]1 (centres undefined) gave 9.399%.
CCSCc1nc(O)c2nnn(C3CCN(Cc4ccoc4)CC3)c2n1 gave 13.71%.
CC(=O)N1CCCN(C(C(=O)O)c2cccc(C)c2C)CC1 (centres undefined) gave 11.04%.
CCc1ncc(C(=O)N2CCCOC(Cn3cccn3)C2)cn1 (centres undefined) gave 17.01%.
Cc1nnsc1C(=O)N1CCCC(c2nccn2Cc2cscn2)C1 (centres undefined) gave 2.007%.